This is an account of results in the supplement of paper PMC6411743.

By UniProt entry, the sequences of proteins in these tests, tags left out. Where a name states a change or a piece, a line headed by the entry shows the natural chain unless it says otherwise.
UniProt Q5VZL5: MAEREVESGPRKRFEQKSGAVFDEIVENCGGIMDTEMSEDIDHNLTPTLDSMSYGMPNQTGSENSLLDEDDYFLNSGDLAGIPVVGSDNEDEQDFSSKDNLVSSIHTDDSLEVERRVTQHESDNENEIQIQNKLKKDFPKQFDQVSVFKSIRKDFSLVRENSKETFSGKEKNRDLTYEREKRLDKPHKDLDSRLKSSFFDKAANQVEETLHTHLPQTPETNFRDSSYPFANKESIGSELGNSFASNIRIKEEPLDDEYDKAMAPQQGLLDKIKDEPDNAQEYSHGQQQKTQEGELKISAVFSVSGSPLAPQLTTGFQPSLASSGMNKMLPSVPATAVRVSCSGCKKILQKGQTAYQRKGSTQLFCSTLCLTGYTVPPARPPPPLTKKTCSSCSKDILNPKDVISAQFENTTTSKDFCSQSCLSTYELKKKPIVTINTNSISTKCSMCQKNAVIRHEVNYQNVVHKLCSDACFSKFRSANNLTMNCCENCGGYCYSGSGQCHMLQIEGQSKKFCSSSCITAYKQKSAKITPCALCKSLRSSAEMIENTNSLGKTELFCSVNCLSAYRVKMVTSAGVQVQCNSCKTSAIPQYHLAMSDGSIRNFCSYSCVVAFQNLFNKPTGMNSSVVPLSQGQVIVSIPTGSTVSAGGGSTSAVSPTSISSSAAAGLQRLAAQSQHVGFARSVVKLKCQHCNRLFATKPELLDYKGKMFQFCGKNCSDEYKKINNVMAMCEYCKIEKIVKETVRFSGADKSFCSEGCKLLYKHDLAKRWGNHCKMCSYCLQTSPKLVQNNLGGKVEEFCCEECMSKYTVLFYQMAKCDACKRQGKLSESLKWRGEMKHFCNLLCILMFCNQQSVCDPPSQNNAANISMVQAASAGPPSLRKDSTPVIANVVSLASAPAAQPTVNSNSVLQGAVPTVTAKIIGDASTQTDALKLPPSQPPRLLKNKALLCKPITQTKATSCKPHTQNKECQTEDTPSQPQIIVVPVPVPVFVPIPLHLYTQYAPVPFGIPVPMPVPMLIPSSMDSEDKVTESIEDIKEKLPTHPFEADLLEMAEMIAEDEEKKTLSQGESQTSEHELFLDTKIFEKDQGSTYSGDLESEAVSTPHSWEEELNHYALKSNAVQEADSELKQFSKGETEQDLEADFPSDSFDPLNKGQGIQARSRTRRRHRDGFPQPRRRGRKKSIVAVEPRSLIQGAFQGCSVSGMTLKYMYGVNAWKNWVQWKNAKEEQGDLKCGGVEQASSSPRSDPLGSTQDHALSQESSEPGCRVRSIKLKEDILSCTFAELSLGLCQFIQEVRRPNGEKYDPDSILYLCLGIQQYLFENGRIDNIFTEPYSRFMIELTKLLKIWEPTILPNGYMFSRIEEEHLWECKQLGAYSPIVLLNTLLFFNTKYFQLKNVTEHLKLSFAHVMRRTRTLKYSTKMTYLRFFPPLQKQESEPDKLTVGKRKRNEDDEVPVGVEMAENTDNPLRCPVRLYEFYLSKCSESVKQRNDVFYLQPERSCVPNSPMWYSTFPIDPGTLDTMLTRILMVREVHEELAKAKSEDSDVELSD
UniProt Q7L0J3, whole entry: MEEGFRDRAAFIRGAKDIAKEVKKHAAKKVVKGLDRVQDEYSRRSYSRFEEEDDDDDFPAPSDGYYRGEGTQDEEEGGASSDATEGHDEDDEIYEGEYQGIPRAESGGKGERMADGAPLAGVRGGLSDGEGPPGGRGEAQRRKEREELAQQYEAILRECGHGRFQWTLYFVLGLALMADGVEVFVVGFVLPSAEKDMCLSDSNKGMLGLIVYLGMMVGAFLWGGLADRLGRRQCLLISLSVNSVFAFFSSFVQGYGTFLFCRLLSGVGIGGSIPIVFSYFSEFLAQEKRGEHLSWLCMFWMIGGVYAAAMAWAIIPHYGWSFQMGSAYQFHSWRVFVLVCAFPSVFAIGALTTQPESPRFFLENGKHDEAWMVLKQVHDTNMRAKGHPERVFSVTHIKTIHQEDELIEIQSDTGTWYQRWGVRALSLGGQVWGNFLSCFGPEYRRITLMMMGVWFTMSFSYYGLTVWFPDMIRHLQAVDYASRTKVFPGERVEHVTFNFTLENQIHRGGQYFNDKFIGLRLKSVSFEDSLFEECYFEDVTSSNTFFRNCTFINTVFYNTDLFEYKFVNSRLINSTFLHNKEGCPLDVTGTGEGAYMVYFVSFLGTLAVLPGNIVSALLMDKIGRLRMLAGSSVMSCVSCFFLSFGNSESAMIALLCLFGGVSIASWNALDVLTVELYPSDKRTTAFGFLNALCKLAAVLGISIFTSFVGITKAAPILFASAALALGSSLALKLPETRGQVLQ
UniProt Q6NXT6: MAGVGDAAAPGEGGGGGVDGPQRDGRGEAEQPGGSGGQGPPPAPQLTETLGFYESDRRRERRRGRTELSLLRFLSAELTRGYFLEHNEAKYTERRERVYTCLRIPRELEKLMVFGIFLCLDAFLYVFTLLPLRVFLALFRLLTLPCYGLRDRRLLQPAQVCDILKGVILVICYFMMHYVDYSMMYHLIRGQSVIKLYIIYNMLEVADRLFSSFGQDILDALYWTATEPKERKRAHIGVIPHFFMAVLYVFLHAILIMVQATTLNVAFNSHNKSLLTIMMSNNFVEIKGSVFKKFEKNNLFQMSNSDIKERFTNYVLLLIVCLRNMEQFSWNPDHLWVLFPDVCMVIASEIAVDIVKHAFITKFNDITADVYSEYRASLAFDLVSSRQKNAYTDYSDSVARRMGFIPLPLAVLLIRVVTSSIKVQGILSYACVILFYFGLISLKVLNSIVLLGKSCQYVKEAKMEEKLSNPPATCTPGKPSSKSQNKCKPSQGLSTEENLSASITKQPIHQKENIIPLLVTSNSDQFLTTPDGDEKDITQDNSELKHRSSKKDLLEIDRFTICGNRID
UniProt Q6IQ22: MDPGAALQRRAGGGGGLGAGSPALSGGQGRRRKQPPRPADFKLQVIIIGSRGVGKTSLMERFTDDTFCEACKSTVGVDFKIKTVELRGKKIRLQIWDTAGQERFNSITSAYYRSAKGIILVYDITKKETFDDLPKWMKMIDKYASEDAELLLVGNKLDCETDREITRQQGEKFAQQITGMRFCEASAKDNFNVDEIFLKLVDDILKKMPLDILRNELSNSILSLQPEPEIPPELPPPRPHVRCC
UniProt Q6RI45, whole entry: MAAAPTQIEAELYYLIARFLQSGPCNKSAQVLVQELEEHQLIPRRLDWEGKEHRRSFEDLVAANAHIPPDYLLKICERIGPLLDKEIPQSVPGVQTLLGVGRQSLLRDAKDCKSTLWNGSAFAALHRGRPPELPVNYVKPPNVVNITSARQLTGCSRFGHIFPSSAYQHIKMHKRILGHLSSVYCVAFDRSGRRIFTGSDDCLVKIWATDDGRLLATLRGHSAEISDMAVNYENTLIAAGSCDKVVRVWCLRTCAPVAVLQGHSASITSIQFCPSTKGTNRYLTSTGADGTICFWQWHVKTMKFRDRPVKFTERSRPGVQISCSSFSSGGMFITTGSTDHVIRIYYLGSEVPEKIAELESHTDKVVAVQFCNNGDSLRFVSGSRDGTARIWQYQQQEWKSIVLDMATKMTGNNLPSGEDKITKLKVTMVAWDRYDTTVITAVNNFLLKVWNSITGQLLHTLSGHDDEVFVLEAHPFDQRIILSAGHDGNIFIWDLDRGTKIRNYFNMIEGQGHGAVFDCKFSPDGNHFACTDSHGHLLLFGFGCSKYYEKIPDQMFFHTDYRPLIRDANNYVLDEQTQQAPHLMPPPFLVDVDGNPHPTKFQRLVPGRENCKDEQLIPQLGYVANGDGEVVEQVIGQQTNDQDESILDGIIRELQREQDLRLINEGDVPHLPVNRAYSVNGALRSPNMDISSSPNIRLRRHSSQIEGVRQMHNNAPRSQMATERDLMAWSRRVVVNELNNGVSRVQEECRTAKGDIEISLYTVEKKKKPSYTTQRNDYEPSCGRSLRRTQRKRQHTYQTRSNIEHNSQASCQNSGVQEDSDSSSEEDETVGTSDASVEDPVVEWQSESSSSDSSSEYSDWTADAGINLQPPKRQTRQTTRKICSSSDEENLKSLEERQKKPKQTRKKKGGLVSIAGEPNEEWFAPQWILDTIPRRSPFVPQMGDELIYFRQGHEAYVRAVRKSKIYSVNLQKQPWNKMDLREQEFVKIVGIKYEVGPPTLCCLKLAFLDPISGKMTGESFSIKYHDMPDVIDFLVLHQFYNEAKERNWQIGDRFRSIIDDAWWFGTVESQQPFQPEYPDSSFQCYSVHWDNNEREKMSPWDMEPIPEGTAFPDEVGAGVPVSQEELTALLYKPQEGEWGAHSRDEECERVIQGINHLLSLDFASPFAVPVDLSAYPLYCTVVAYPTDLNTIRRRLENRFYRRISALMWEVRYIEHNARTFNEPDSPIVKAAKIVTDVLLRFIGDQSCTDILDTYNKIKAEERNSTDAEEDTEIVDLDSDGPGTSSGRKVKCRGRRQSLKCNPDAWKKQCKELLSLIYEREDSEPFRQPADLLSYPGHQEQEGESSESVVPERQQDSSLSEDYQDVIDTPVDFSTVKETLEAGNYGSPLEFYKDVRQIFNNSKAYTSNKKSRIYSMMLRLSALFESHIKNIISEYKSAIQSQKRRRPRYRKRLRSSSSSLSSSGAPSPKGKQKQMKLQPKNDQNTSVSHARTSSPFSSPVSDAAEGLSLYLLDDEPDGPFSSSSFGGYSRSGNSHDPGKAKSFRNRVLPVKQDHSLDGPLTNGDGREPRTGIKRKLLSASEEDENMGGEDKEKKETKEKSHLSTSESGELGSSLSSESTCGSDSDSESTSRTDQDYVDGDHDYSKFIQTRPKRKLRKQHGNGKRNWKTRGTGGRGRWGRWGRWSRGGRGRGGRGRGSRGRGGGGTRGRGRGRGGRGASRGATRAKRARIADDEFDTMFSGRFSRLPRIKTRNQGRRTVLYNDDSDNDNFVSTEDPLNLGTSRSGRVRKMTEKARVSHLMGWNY
UniProt Q6ZNB6: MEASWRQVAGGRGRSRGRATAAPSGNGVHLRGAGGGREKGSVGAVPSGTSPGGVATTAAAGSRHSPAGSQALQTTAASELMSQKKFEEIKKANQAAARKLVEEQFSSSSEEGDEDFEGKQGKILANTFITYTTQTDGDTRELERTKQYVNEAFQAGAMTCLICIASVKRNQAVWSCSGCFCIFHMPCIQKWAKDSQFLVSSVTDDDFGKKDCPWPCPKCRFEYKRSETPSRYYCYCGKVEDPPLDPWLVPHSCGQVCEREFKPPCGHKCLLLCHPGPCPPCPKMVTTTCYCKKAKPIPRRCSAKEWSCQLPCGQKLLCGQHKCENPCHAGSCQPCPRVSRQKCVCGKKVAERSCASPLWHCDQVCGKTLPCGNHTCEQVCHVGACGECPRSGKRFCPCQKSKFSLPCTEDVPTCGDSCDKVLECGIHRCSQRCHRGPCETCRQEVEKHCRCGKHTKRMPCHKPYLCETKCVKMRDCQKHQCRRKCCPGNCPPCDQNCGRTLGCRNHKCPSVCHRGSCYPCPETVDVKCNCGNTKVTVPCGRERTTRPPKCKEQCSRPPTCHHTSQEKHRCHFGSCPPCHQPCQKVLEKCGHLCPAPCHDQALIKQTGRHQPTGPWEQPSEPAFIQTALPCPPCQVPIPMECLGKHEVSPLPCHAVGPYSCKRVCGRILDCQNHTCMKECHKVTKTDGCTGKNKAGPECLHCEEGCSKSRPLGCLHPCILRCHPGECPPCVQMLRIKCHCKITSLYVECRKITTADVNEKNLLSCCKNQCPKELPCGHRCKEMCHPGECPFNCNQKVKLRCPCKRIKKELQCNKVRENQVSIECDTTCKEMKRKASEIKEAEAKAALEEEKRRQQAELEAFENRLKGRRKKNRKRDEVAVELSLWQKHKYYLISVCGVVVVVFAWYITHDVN
UniProt Q6P3S1: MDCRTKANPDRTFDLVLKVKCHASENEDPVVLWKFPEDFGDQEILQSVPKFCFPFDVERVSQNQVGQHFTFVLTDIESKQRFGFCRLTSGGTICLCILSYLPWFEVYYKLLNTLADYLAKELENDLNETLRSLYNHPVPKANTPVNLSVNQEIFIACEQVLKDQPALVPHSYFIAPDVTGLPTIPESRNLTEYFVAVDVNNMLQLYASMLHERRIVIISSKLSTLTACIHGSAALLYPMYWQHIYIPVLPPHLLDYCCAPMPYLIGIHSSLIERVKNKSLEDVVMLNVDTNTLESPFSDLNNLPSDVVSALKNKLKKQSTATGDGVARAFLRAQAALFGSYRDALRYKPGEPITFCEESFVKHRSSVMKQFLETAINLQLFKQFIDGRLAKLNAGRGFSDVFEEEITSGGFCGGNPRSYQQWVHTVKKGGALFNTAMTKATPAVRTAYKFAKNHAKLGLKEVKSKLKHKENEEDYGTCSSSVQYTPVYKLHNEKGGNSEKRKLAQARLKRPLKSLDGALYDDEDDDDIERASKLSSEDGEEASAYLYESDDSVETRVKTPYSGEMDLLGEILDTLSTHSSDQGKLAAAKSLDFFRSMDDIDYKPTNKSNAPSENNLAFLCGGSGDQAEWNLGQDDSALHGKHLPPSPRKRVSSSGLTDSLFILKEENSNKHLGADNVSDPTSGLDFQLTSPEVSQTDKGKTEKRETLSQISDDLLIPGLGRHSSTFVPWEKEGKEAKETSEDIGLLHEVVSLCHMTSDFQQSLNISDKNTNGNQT

± gives the standard deviation of the averaged measurements. Only a part is listed here, and it is no random draw. Small differences around the control level are noise.

Compound in the first test: Nc1ncnc2c1ncn2[C@@H]1O[C@H](COP(=O)(O)OP(=O)(O)NP(=O)(O)O)[C@@H](O)[C@H]1O [adenylyl imidodiphosphate]
Nature of the test: NP40-soluble protein abundance relative to vehicle (solubility fold change) (ratio); higher = more soluble protein in presence of AMP-PNP. The following applies: concentration: 0.1mM. In short, it runs like this:
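Eight concentrations, 0.1 to 10 mM, were tested on Jurkat crude lysate for 10 min at room temperature and then 3 min at 37 °C, in three independent experiments. The lysate was solubilised with 0.8% NP40 and benzonase, ultracentrifuged, and the supernatant TMT-labelled for LC-MS/MS. Each value is the fold change against the detergent-processed vehicle in its own replicate, from vsn-normalised intensities.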
As for CENPQ (UniProt Q7L2Z9), the NP40-soluble protein abundance is 1.02 ± 0.018.

In the case of UniProt Q641Q2 and related entries, the NP40-soluble protein abundance came out at 1.008 ± 0.0072.

Consider UniProt Q6N069, for which the NP40-soluble protein abundance was determined as 1 ± 0.13.

For the target SASS6 (UniProt Q6UVJ0), the NP40-soluble protein abundance worked out at 0.994 ± 0.018.

As to UniProt Q7Z3B4 and related entries, the NP40-soluble protein abundance was 1.01 ± 0.022.

UniProt Q5VZL5 and related entries: the NP40-soluble protein abundance was determined as 0.97 ± 0.026.

As to UniProt Q6ICB0, the NP40-soluble protein abundance came to 1 ± 0.038.

With UniProt Q6P3S6 and related entries, the NP40-soluble protein abundance was found to be 0.991 ± 0.011.

PRPF8 (UniProt Q6P2Q9): the NP40-soluble protein abundance was 1.08 ± 0.034.

For the target UniProt Q7L0J3 and related entries, the NP40-soluble protein abundance turned out to be 1.03 ± 0.028.

Regarding UniProt Q7Z3K6 and related entries, the NP40-soluble protein abundance was 1 ± 0.041.

Consider BLOC1S3 (UniProt Q6QNY0), for which the NP40-soluble protein abundance stood at 1.02 ± 0.033.

As for LARP1 (UniProt Q6PKG0), the NP40-soluble protein abundance came out at 0.986 ± 0.033.

Consider LYPLAL1 (UniProt Q5VWZ2), for which the NP40-soluble protein abundance was 1.02 ± 0.025.

As for UniProt Q6NXT6 and related entries, the NP40-soluble protein abundance stood at 0.9395 ± 0.0023.

With UniProt Q6P1A2 and related entries, the NP40-soluble protein abundance worked out at 0.997 ± 0.037.

With UniProt Q7L099-2|Q7L099-3|Q7L099-4, the NP40-soluble protein abundance stood at 0.978 ± 0.034.

Regarding UniProt Q6FIF0 and related entries, the NP40-soluble protein abundance amounted to 0.975 ± 0.022.

UniProt Q6P087 and related entries: the NP40-soluble protein abundance turned out to be 0.987 ± 0.021.

As to RAB12 (UniProt Q6IQ22), the NP40-soluble protein abundance was 1 ± 0.051.

On to DHX57 (UniProt Q6P158), for which the NP40-soluble protein abundance turned out to be 1 ± 0.028.

With UniProt Q5VWN6, the NP40-soluble protein abundance stood at 1.01 ± 0.037.

In the case of UniProt Q6KC79 and related entries, the NP40-soluble protein abundance came out at 0.989 ± 0.023.

For SLC30A9 (UniProt Q6PML9), the NP40-soluble protein abundance came out at 1.02 ± 0.035.

As for UniProt Q6RI45 and related entries, the NP40-soluble protein abundance worked out at 1.02 ± 0.034.

With NFXL1 (UniProt Q6ZNB6), the NP40-soluble protein abundance turned out to be 0.973 ± 0.047.

Regarding UniProt Q709C8 and related entries, the NP40-soluble protein abundance was 0.991 ± 0.043.

Regarding UniProt Q6P3S1 and related entries, the NP40-soluble protein abundance stood at 0.9981 ± 0.0018.

As for SMYD5 (UniProt Q6GMV2), the NP40-soluble protein abundance came to 1.01 ± 0.03.

UniProt Q5VIR6-4: the NP40-soluble protein abundance was 1.02 ± 0.024.

For UniProt Q68CZ6, the NP40-soluble protein abundance came to 1 ± 0.046.

As to UniProt Q684P5-2|Q684P5-3|Q684P5, the NP40-soluble protein abundance turned out to be 0.99 ± 0.011.

Consider FDX2 (UniProt Q6P4F2), for which the NP40-soluble protein abundance was found to be 0.96 ± 0.029.

For the target RNF20 (UniProt Q5VTR2), the NP40-soluble protein abundance worked out at 0.991 ± 0.031.

Regarding HSDL2 (UniProt Q6YN16), the NP40-soluble protein abundance came out at 0.9704 ± 0.0053.

Consider RNF123 (UniProt Q5XPI4), for which the NP40-soluble protein abundance stood at 0.965 ± 0.017.

Take UniProt Q6N043 and related entries: the NP40-soluble protein abundance came out at 1.01 ± 0.012.

As to ANKRD54 (UniProt Q6NXT1), the NP40-soluble protein abundance was found to be 0.974 ± 0.041.

The same test, now with this note: concentration: 0.5mM.
Regarding CENPQ (UniProt Q7L2Z9), the NP40-soluble protein abundance worked out at 0.987 ± 0.05.

In the case of UniProt Q641Q2 and related entries, the NP40-soluble protein abundance was 1.04 ± 0.088.

UniProt Q6N069: the NP40-soluble protein abundance came out at 0.885 ± 0.18.

SASS6 (UniProt Q6UVJ0): the NP40-soluble protein abundance came out at 1.01 ± 0.035.

On to UniProt Q7Z3B4 and related entries, for which the NP40-soluble protein abundance was 0.983 ± 0.028.

Consider UniProt Q5VZL5 and related entries, for which the NP40-soluble protein abundance was 1 ± 0.015.

Turning to UniProt Q6ICB0, the NP40-soluble protein abundance was 1 ± 0.03.

For UniProt Q6P3S6 and related entries, the NP40-soluble protein abundance is 1.01 ± 0.047.

Turning to PRPF8 (UniProt Q6P2Q9), the NP40-soluble protein abundance came to 1.01 ± 0.13.

Turning to UniProt Q7L0J3 and related entries, the NP40-soluble protein abundance turned out to be 0.972 ± 0.013.

Regarding UniProt Q7Z3K6 and related entries, the NP40-soluble protein abundance turned out to be 1 ± 0.042.

With BLOC1S3 (UniProt Q6QNY0), the NP40-soluble protein abundance amounted to 0.989 ± 0.055.

On to LARP1 (UniProt Q6PKG0), for which the NP40-soluble protein abundance stood at 0.996 ± 0.045.

As for LYPLAL1 (UniProt Q5VWZ2), the NP40-soluble protein abundance turned out to be 0.977 ± 0.04.

Consider UniProt Q6NXT6 and related entries, for which the NP40-soluble protein abundance was determined as 0.974 ± 0.045.

UniProt Q6P1A2 and related entries: the NP40-soluble protein abundance is 0.9972 ± 0.0066.

UniProt Q7L099-2|Q7L099-3|Q7L099-4: the NP40-soluble protein abundance turned out to be 0.983 ± 0.042.

For the target UniProt Q6FIF0 and related entries, the NP40-soluble protein abundance was found to be 0.999 ± 0.049.

Take UniProt Q6P087 and related entries: the NP40-soluble protein abundance was found to be 0.991 ± 0.034.

As for RAB12 (UniProt Q6IQ22), the NP40-soluble protein abundance was determined as 1.01 ± 0.032.

For DHX57 (UniProt Q6P158), the NP40-soluble protein abundance is 0.997 ± 0.015.

With UniProt Q5VWN6, the NP40-soluble protein abundance stood at 0.999 ± 0.018.

As for UniProt Q6KC79 and related entries, the NP40-soluble protein abundance turned out to be 1.02 ± 0.031.

Take SLC30A9 (UniProt Q6PML9): the NP40-soluble protein abundance is 0.9969 ± 0.0082.

UniProt Q6RI45 and related entries: the NP40-soluble protein abundance was determined as 1.01 ± 0.011.

Consider NFXL1 (UniProt Q6ZNB6), for which the NP40-soluble protein abundance came to 0.948 ± 0.013.

In the case of UniProt Q709C8 and related entries, the NP40-soluble protein abundance turned out to be 0.959 ± 0.08.

For the target UniProt Q6P3S1 and related entries, the NP40-soluble protein abundance was found to be 1.01 ± 0.019.

On to SMYD5 (UniProt Q6GMV2), for which the NP40-soluble protein abundance was 0.981 ± 0.046.

In the case of UniProt Q5VIR6-4, the NP40-soluble protein abundance came out at 1.05 ± 0.041.

With UniProt Q68CZ6, the NP40-soluble protein abundance amounted to 0.999 ± 0.027.

Regarding UniProt Q684P5-2|Q684P5-3|Q684P5, the NP40-soluble protein abundance is 0.978 ± 0.037.

Take FDX2 (UniProt Q6P4F2): the NP40-soluble protein abundance was determined as 1 ± 0.019.

As for RNF20 (UniProt Q5VTR2), the NP40-soluble protein abundance was 1.01 ± 0.036.

As for HSDL2 (UniProt Q6YN16), the NP40-soluble protein abundance was 0.988 ± 0.021.

On to RNF123 (UniProt Q5XPI4), for which the NP40-soluble protein abundance worked out at 0.967 ± 0.016.

Take UniProt Q6N043 and related entries: the NP40-soluble protein abundance was 1.036 ± 0.01.

With ANKRD54 (UniProt Q6NXT1), the NP40-soluble protein abundance was determined as 0.962 ± 0.013.
